Experimental data published in the supplement of paper PMC7646827.
Structures can show the parent of a compound that is named as a salt. Repeats are few or missing, and single values can be far off.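 All cells are established human bladder cancer lines, one derived from a patient-derived xenograft. A luminescent ATP assay measured viability as percent inhibition relative to vehicle across seven dilutions. The paper rates scores above 59 very active, 30–59 active, 21–29 semi-active, 9–20 low active, below 9 inactive.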

Tests used:
Test in all cases: drug sensitivity score DSS3 (score 0-100); higher = more sensitive; extreme values may be limits of the assay
Details in all cases: culture: 3D, ultra-low attachment; treatment time: 5 days
UM-UC-6 = tested on: UM-UC-6
UM-UC-15 = tested on: UM-UC-15
UM-UC-5 = tested on: UM-UC-5
UM-UC-1 = tested on: UM-UC-1
UM-UC-17 = tested on: UM-UC-17
UM-UC-3 = tested on: UM-UC-3
UM-UC-9 = tested on: UM-UC-9
5637 = tested on: 5637
UM-UC-18 = tested on: UM-UC-18
SW780 = tested on: SW780
SCaBER = tested on: SCaBER
UM-UC-14 = tested on: UM-UC-14
J82 = tested on: J82
T-24 = tested on: T-24
UM-UC-12 = tested on: UM-UC-12
TCCSUP = tested on: TCCSUP
BC8149 = tested on: BC8149

| Compound | drug sensitivity score DSS3 (UM-UC-6) | drug sensitivity score DSS3 (UM-UC-15) | drug sensitivity score DSS3 (UM-UC-5) | drug sensitivity score DSS3 (UM-UC-1) | drug sensitivity score DSS3 (UM-UC-17) | drug sensitivity score DSS3 (UM-UC-3) | drug sensitivity score DSS3 (UM-UC-9) | drug sensitivity score DSS3 5637 | drug sensitivity score DSS3 (UM-UC-18) | drug sensitivity score DSS3 (SW780) | drug sensitivity score DSS3 (SCaBER) | drug sensitivity score DSS3 (UM-UC-14) | drug sensitivity score DSS3 (J82) | drug sensitivity score DSS3 (T-24) | drug sensitivity score DSS3 (UM-UC-12) | drug sensitivity score DSS3 (TCCSUP) | drug sensitivity score DSS3 (BC8149) |
| --- | --- | --- | --- | --- | --- | --- | --- | --- | --- | --- | --- | --- | --- | --- | --- | --- | --- |
| CCc1c2c(nc3ccc(OC(=O)N4CCC(N5CCCCC5)CC4)cc13)-c1cc3c(c(=O)n1C2)COC(=O)[C@]3(O)CC [Irinotecan HCl Trihydrate] (max dose 10000 nM) | 0.972 | 0 | 0.167 | 2.4 | 0.536 | 1.2 | 0.0938 | 7.24 | 7.91 | 0 | 0.202 | 3.05 | 0 | 0.429 | 0 | 9.22 | 10.7 |
| COC(c1ccccc1)(c1ccccc1)[C@H](Oc1nc(C)cc(C)n1)C(=O)O [Ambrisentan] (max dose 10000 nM) | 8.53 | 0 | 2.32 | 36.1 | 4.03 | 1.52 | 0 | 4.65 | 8.93 | 1.57 | 0.981 | 5.79 | 0 | 0 | 2.9 | 9.01 | 1.21 |
| COc1ccc(-c2ccc3c(N4CCOCC4)nc(N4C[C@@H](C)O[C@@H](C)C4)nc3n2)cc1CO (max dose 10000 nM) | 6.88 | 0 | 5.79 | 14.9 | 1.57 | 3.3 | 1.2 | 11 | 1.66 | 1.32 | 6.78 | 5.53 | 1.74 | 0 | 1.58 | 15.3 | 14 |
| COc1ccc(-c2cnc3c(-c4cccc5ncccc45)cnn3c2)cc1 [ML347] (max dose 10000 nM) | 0.0167 | 0 | 1.06 | 0.0349 | 0 | 0 | 0.0446 | 0 | 0 | 0 | 2.24 | 0 | 0 | 0.881 | 0 | 0 | 0 |
| CCc1cc2c(cc1N1CCC(N3CCOCC3)CC1)C(C)(C)c1[nH]c3cc(C#N)ccc3c1C2=O [alectinib HCL] (max dose 2000 nM) | 0.162 | 2.45 | 0 | 0 | 0 | 0 | 0 | 0 | 0 | 0 | 0 | 0 | 0 | 0.0199 | 0 | 0 | 0 |
| CC/C(=C(\c1ccccc1)c1ccc(OCCN(C)C)cc1)c1ccccc1 [Tamoxifen Citrate] (max dose 10000 nM) | 0.732 | 0 | 0 | 0 | 0 | 0.168 | 0 | 0 | 0 | 0 | 0 | 0.178 | 0 | 0 | 0.229 | 0 | 0 |
| C/C(O)=C(\C#N)C(=O)Nc1cc(Br)ccc1Br [LFM-A13] (max dose 10000 nM) | 0 | 0.314 | 0 | 0 | 0 | 0 | 0 | 0 | 0 | 0 | 0.572 | 0 | 0 | 0 | 0 | 0.294 | 2.66 |
| O=[N+]([O-])c1ccc2c(c1)S(=O)(=O)C=C2 [Stattic] (max dose 10000 nM) | 1.25 | 0.464 | 0.195 | 0.438 | 0 | 0.485 | 0.0904 | 0.743 | 0.119 | 0.8 | 0 | 0 | 0 | 0.0293 | 0 | 0.797 | 1.56 |
| N#CC(=C(/N)Sc1ccccc1N)/C(C#N)=C(\N)Sc1ccccc1N [U0126-EtOH] (max dose 10000 nM) | 0 | 0 | 0 | 0 | 0 | 0.283 | 0 | 0 | 4.08e-05 | 0 | 0 | 0 | 0 | 0 | 0 | 0 | 0 |
| CN(C)C(=O)/C(C#N)=C/c1ccc(-c2nc3cnc4[nH]ccc4c3n2C2CCCCC2)o1 [FM-381] (max dose 10000 nM) | 0 | 7.01 | 0 | 0 | 0.373 | 0.423 | 0 | 0.202 | 0.108 | 0 | 0 | 0 | 0 | 0 | 0 | 0 | 0.406 |
| CN(Cc1cnc2nc(N)nc(N)c2n1)c1ccc(C(=O)N[C@@H](CCC(=O)O)C(=O)O)cc1 [Methotrexate] (max dose 10000 nM) | 16.4 | 0 | 0 | 37 | 61.3 | 22.7 | 31.6 | 47 | 22.9 | 28.5 | 1.68 | 60.1 | 0.269 | 0 | 0 | 41.2 | 3.94 |
| COc1cc(F)ccc1-c1ncnc(Nc2cccc(C[S@](C)(=N)=O)c2)n1 (max dose 10000 nM) | 10.2 | 11.1 | 13 | 11.9 | 2.69 | 16.6 | 6.41 | 3.14 | 5.08 | 1.94 | 6.74 | 1.94 | 2.74 | 3.47 | 4.86 | 3.17 | 8.24 |
| CCc1cnn2c(NCc3ccc[n+]([O-])c3)cc(N3CCCC[C@H]3CCO)nc12 [Dinaciclib] (max dose 10000 nM) | 54.1 | 45.1 | 52.6 | 52.8 | 58.3 | 31.7 | 18.4 | 58 | 56.5 | 45.5 | 73.1 | 41.8 | 32.3 | 40.8 | 46.5 | 59.4 | 73 |
| COC(=O)Nc1ccc(-c2nc(N3CCOCC3)c3cnn(C4CCN(C(=O)OC)CC4)c3n2)cc1 [WYE-354] (max dose 10000 nM) | 1.29 | 0 | 1.88 | 3.41 | 1.2 | 0.759 | 0 | 1.83 | 1.8 | 1.26 | 2.37 | 3.15 | 1.6 | 0 | 1.81 | 5.91 | 4.93 |
| CN1CCC(COc2cnc(-c3cccc(Cn4nc(-c5cccc(C#N)c5)ccc4=O)c3)nc2)CC1 (max dose 10000 nM) | 0.0684 | 0 | 0 | 0 | 0 | 0 | 0 | 0 | 0 | 0 | 0 | 0.000695 | 0 | 0 | 0 | 0 | 0 |
| CO[C@@H](C)Cn1c(=O)n(C)c2cnc3ccc(-c4cncc(C(C)(C)O)c4)cc3c21 (max dose 10000 nM) | 27.8 | 10.3 | 24.5 | 25.9 | 20.2 | 26.8 | 6.88 | 38.1 | 33.5 | 3.47 | 27.4 | 34.3 | 14.6 | 10.3 | 46.3 | 48.5 | 60.5 |
| CCN(CC)CCNC(=O)c1c(C)[nH]c(/C=C2\C(=O)Nc3ccc(F)cc32)c1C [Sunitinib malate] (max dose 10000 nM) | 0 | 1.55 | 0 | 0 | 0 | 0 | 0 | 2.64 | 0.668 | 0 | 0 | 0 | 0 | 0 | 0 | 4.49 | 2.3 |
| FC(F)(F)c1ccc(/C=C/c2nc(COc3ccc(CCCCn4ccnn4)cc3)co2)cc1 [Mubritinib (TAK 165)] (max dose 10000 nM) | 12.6 | 0 | 3.7 | 24.9 | 12.5 | 2.23e-06 | 11.4 | 0 | 0 | 11.6 | 0 | 25.6 | 0 | 0 | 0 | 5.83 | 0 |
| CN[C@@H](C)C(=O)N[C@H]1CN(C(=O)CC(C)C)CC[C@H]2CC[C@@H](C(=O)NC(c3ccccc3)c3ccccc3)N2C1=O [AT406 (SM-406)] (max dose 10000 nM) | 4.77 | 18.2 | 0 | 1.8 | 0 | 2.68 | 0 | 4.81 | 1.08 | 0.436 | 28.6 | 3.93 | 8.29 | 3.23 | 17.9 | 18.2 | 11.8 |
| Cn1nccc1Nc1nccc(-c2cc3c(s2)C(C)(C)N(CCN2CCOCC2)C3=O)n1 (max dose 10000 nM) | 0 | 0 | 21 | 0 | 0 | 2.7 | 0 | 0 | 0 | 0 | 5.78 | 0 | 0 | 0.193 | 0 | 0 | 0 |
| CC(=O)O/N=C1/C(c2c(O)[nH]c3cc(Br)ccc23)=Nc2ccccc21 [BIO-acetoxime] (max dose 10000 nM) | 0 | 14.1 | 0 | 0.096 | 0 | 0 | 0 | 0 | 0 | 0 | 0 | 0 | 0 | 0.0681 | 0.101 | 0 | 0 |
| c1cncc(CN2CCC(n3ncc4c(N5CCOCC5)nc(-c5ccc6[nH]ccc6c5)nc43)CC2)c1 [WAY-600] (max dose 10000 nM) | 0 | 0 | 5.67 | 1.73 | 0 | 0.117 | 0.0231 | 0 | 2.09 | 0 | 0.14 | 0.899 | 0 | 0 | 0 | 2.78 | 2.74 |
| N#Cc1ccc(C(c2ccc(C#N)cc2)n2cncn2)cc1 [Letrozole] (max dose 10000 nM) | 0.197 | 0 | 5.87 | 1.34 | 0.0345 | 15.2 | 2.69 | 12.8 | 3.67 | 0 | 2.46 | 1.25 | 0 | 1.73 | 4.26 | 11.3 | 8.85 |
| Cc1sc2c(c1C)C(c1ccc(Cl)cc1)=N[C@@H](CC(=O)Nc1ccc(O)cc1)c1nnc(C)n1-2 [OTX015] (max dose 10000 nM) | 0 | 1.32 | 1.3 | 0 | 8.6 | 0.436 | 3.55 | 6.2 | 0 | 0 | 0 | 1.36 | 0.0985 | 0.433 | 13.3 | 11.8 | 7.18 |

Another view of some results above:
Compound	drug sensitivity score DSS3 (UM-UC-6)	drug sensitivity score DSS3 (UM-UC-15)	drug sensitivity score DSS3 (UM-UC-5)	drug sensitivity score DSS3 (UM-UC-1)	drug sensitivity score DSS3 (UM-UC-17)	drug sensitivity score DSS3 (UM-UC-3)	drug sensitivity score DSS3 (UM-UC-9)	drug sensitivity score DSS3 5637	drug sensitivity score DSS3 (UM-UC-18)	drug sensitivity score DSS3 (SW780)	drug sensitivity score DSS3 (SCaBER)	drug sensitivity score DSS3 (UM-UC-14)	drug sensitivity score DSS3 (J82)	drug sensitivity score DSS3 (T-24)	drug sensitivity score DSS3 (UM-UC-12)	drug sensitivity score DSS3 (TCCSUP)	drug sensitivity score DSS3 (BC8149)
N#CC(=C(/N)Sc1ccccc1N)/C(C#N)=C(\N)Sc1ccccc1N [U0126-EtOH] (max dose 10000 nM)	0	0	0	0	0	0.283	0	0	4.08e-05	0	0	0	0	0	0	0	0
CN(C)C(=O)/C(C#N)=C/c1ccc(-c2nc3cnc4[nH]ccc4c3n2C2CCCCC2)o1 [FM-381] (max dose 10000 nM)	0	7.01	0	0	0.373	0.423	0	0.202	0.108	0	0	0	0	0	0	0	0.406
